# Library screen at single concentrations

Amino acid sequences for entries named in this document (tags omitted). Residues count along the entry.
UniProt P9WNZ1, whole entry: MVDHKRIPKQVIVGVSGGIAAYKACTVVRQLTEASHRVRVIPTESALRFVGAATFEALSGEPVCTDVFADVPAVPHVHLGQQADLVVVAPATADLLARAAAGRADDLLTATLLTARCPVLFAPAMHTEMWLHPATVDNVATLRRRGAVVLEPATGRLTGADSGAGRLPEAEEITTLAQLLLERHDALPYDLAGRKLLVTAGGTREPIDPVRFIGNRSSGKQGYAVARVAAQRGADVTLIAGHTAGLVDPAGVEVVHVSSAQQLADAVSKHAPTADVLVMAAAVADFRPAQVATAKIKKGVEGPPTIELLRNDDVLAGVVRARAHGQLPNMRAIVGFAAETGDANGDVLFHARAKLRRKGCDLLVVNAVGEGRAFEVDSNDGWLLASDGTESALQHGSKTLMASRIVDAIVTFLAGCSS
UniProt Q8IDJ8, 1-583: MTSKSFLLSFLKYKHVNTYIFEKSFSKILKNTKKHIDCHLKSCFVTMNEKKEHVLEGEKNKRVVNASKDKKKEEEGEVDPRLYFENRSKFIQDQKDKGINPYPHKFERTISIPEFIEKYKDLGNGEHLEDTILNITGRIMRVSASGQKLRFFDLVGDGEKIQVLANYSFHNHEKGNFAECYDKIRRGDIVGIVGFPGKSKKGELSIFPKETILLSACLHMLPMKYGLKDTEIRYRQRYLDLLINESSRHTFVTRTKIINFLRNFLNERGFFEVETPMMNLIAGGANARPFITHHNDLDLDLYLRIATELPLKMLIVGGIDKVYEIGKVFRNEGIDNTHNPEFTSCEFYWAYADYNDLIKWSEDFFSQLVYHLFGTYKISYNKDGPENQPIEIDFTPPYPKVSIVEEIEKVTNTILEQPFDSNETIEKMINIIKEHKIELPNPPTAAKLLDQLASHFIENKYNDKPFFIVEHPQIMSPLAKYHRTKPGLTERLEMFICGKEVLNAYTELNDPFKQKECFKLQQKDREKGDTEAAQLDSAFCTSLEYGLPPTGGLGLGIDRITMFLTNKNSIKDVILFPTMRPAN
UniProt P9WFT3, whole entry: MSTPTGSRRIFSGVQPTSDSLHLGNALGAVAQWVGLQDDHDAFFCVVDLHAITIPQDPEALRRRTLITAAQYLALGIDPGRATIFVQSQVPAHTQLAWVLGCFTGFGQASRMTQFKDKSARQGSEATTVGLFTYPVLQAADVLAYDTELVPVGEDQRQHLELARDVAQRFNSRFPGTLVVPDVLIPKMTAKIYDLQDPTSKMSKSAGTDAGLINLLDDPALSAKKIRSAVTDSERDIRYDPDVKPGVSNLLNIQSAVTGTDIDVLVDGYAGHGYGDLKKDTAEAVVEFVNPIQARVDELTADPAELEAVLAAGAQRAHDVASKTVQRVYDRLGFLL
UniProt I6X8D2, whole entry: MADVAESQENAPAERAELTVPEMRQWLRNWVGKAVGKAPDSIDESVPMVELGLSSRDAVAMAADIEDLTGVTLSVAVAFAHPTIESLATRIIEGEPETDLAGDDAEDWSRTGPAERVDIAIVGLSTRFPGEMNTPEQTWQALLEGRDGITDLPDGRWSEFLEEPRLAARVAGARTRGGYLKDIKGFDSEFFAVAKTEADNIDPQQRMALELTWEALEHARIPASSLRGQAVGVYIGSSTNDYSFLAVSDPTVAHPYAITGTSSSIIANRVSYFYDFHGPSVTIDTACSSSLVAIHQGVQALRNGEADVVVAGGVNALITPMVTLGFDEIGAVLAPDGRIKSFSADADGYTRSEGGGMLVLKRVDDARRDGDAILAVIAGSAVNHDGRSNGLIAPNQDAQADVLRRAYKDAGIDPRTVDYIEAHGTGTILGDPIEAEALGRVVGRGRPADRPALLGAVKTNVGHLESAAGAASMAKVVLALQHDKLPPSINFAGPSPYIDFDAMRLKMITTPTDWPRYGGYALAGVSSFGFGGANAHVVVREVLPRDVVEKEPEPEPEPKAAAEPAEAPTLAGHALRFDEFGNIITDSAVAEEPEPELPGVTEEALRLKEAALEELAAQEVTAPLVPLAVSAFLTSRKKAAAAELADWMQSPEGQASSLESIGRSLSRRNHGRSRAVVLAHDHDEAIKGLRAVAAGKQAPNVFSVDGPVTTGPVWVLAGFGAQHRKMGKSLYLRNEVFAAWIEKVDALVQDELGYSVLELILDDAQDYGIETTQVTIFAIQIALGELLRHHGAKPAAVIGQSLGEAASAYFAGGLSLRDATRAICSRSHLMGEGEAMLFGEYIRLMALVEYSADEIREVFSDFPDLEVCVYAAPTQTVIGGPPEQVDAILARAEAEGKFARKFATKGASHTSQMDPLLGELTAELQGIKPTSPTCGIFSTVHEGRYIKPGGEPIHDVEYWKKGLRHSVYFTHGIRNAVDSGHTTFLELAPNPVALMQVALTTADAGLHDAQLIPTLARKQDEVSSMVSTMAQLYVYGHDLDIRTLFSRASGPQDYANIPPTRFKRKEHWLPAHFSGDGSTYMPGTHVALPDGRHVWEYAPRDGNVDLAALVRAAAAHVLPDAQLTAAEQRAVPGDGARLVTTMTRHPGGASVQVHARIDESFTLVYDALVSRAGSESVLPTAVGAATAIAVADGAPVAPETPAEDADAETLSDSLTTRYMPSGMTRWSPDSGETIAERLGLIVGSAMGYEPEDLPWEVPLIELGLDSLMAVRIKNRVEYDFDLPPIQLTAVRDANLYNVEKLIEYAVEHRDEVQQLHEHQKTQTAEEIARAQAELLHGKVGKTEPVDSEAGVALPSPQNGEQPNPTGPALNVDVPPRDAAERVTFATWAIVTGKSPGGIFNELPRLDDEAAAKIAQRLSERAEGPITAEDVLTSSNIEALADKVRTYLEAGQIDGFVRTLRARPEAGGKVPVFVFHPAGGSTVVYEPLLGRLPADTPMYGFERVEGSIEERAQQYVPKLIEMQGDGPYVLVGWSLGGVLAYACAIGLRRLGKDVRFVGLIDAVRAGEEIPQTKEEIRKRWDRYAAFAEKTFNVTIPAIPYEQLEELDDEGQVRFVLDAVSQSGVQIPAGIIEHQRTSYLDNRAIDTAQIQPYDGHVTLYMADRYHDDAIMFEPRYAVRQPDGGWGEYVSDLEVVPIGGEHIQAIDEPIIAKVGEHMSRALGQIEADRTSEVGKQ

A: 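Enzyme assay of CoaBC with a phosphate dye (Biomol Green) read at 650 nm. Target: Coenzyme A biosynthesis protein CoaBC, Mycobacterium tuberculosis (UniProt P9WNZ1). Concentration: 30 µM. Higher reads as stronger inhibition, judged from the few compounds that gave an IC50. Most strong results did not repeat in a second test. Of about 67,000 compounds tested this way, about 40 (0.06%) reached 50% or more in at least one test.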
B: 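Lysine-tRNA ligase, Plasmodium falciparum 3D7 (UniProt Q8IDJ8). Enzyme assay of the cytosolic lysyl-tRNA synthetase in 384-well plates, read by luminescence. Tested at 30 µM. Higher reads as stronger inhibition, judged from the few compounds that gave an IC50. Of about 69,000 compounds tested this way, about 49 (0.071%) reached 50% or more in at least one test.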
C: 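Assay of Toxoplasma gondii numbers, read through their beta-galactosidase reporter with a colour substrate. Compounds at 10 µM. The record gives no direction; the compounds picked for IC50 retests had high values, so higher reads as fewer parasites. Of about 67,000 compounds tested this way, about 260 (0.38%) reached 50% or more in at least one test.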
D: 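Enzyme assay of tryptophanyl-tRNA synthetase; the read-out is not stated. Target: Tryptophan-tRNA ligase, Mycobacterium tuberculosis (UniProt P9WFT3). Concentration: 10 µM. Direction is not recorded; retested compounds ran higher, which suggests that high means inhibition. Of about 65,000 compounds tested this way, about 64 (0.098%) reached 50% or more in at least one test.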
E: 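Polyketide synthase Pks13, Mycobacterium tuberculosis (UniProt I6X8D2). Enzyme assay of the thioesterase domain of polyketide synthase 13; the read-out is not stated. Compounds at 30 µM. The record gives no direction; the compounds picked for IC50 retests had high values, so higher reads as stronger inhibition. About 67,000 compounds were tested under these conditions; 0.46% (about 300) showed 50% or more at least once.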

Each number is a percent effect as filed.
The record does not define 0% and 100%; most values in the screen are far below 50% and negative numbers occur (in some assays of this library far below -100).
This is an unselected part of the compounds tested.

CC(C)c1nc(CN2CCCC2CN2CCCC2)cs1 (centres unmarked) read A: -15.33%; B: 8.113%; C: -0.579%; D: 0.5696%; E: -13.13%.
CC(C)N1CCN(C)CC1c1nnc2ccc(C(=O)N3CCCC3)cn12 (centres unmarked) read A: 0.2415%; B: 1.499%; C: -2.711%; D: -3.273%; E: -23.38%.
Cn1ccnc1CN1CCC2(CCC(=O)N2CCN2CCCC2)CC1.O=C(O)C(F)(F)F.O=C(O)C(F)(F)F read C: 8.764%.
CS(=O)(=O)NCc1cnc2n1CCN(Cc1cccs1)CC2.O=C(O)C(F)(F)F read C: 6.879%.
Cc1nc(N2CCCC2)nc2c1CCN(Cc1ccoc1)CC2.O=C(O)C(F)(F)F read C: 16.2%.
CC(NC(=O)c1ccoc1)c1ccc2c(c1)CCC(=O)N2 (centres unmarked) read A: 0.7168%; B: 2.739%; C: -0.733%; D: -2.03%; E: -13.49%.
CC(=O)NC1CCCN(C(=O)Nc2cccnc2-n2cccn2)C1 (centres unmarked) read A: 1.567%; B: 1.925%; C: 7.441%; D: -1.371%; E: -13.95%.
O=C(O)C(F)(F)F.O=C(O)C(F)(F)F.c1cnc(N2CC[C@@H](N3CCOCC3)[C@@H]2Cc2ccncc2)nc1 read C: -0.5682%.
CN(C)CCN1CCOCC2(CCCN(C(=O)c3cccc(O)c3)C2)C1 (centres unmarked) read A: -8.469%; B: 11.12%; C: 18.25%; D: 3.743%; E: -34.58%.
NC1(C(=O)NCC2CCCN(Cc3ccccc3F)C2)CCCC1 (centres unmarked) read A: 0.3659%; B: 0.3949%; C: 4.173%; D: 1.06%; E: -5.374%.
CC(C)(C)c1cnc(CN2CCC(NC(=O)C3CCOCC3)CC2)o1 read A: -15.73%; B: 4.373%; C: -4.933%; D: -4.886%; E: -29.61%.
CC(C(=O)NCc1ccc(F)cc1)N(C)CCN1CCOCC1 (centres unmarked) read A: 0.2433%; B: -6.031%; C: -18.14%; D: 0.6536%; E: -11.16%.
Fc1cnc(N2CC[C@@H](N3CCOCC3)[C@@H]2Cc2ccccc2)nc1 read A: 2.114%; B: 3.801%; C: -5.492%; D: -2.017%; E: -4.973%.
CCC(N)c1ccccc1OCC(=O)N1CCCC1 (centres unmarked) read A: 2.632%; B: 1.613%; C: 1.017%; D: -3.342%; E: -13.25%.
Cn1cc(CNC2CCS(=O)(=O)C2)c(-c2cc3ccccc3o2)n1 (centres unmarked) read A: 2.73%; B: 0.1458%; C: -2.537%; D: -9.327%; E: -11.82%.
CCc1nc(C(=O)N2CCN(CCc3ccc(OC)cc3)CC2)c[nH]1 read A: 1.22%; B: -1.577%; C: 1.406%; D: -3.565%; E: -28.61%.
O=C(O)C(F)(F)F.[H][C@]12C[C@@H](CN(C)C)N(C(C)=O)[C@@]1([H])CCN(C(=O)c1ccno1)C2 read C: 9.652%.
Cc1ccc(-c2c(C(=O)NC3CCN(C)CC3)csc2C)cc1 read A: -53.74%; B: 2.46%; C: 1.366%; D: -3.653%; E: -23.53%.
N#Cc1cccc(OCCN2CCCC2C(=O)NC2CC2)c1 (centres unmarked) read A: 0.578%; B: 7.271%; C: 19.24%; D: -0.07179%; E: -15.5%.
CCN(CC)Cc1cn2c(n1)CN(C(=O)Cc1ccsc1)CC2 read A: -7.916%; B: 0.5851%; D: 1.119%; E: 1.615%.
CNC(=O)c1cccc(CN2CCN(C3=NCC(C)(C)S3)CC2)c1 read A: 1.094%; B: 3.759%; D: -2.733%; E: -8.807%.
COCC(=O)N1CCOCC2(CCN(Cc3cccs3)C2)C1 (centres unmarked) read A: -11.96%; B: -2.618%; D: -3.989%; E: -13.16%.
O=c1c2sccc2nc2n1CCN(Cc1cc(F)ccc1F)CC2 read A: 0.3717%; B: 1.666%; E: 4.402%.
Cn1cc(C(=O)NCCC(=O)N2CCCCC2)c(-c2cccnc2)n1 read A: -2.532%; B: 8.957%; C: 3.308%; D: 2.103%; E: -12.06%.
Cc1cc(C)n2c(CNCCNc3ccccc3)cnc2n1 read A: -7.753%; B: 6.289%; C: -5.858%; D: 3.664%; E: 3.729%.
Cc1cs/c(=N\C(=O)c2c3c(nc4onc(C)c24)CCC3)[nH]1 read A: 2.066%; B: 6.227%; D: 1.929%; E: 1.772%.

Source: ChEMBL document CHEMBL3988442, “University of Dundee, Small-Polar-MMV Screening Library” (2021).